Data set [1] has as its system human plasma. The conditions noted are these: methods UF, ED, EP or not described per compound, ref [6]–[22] of Additional file 1; cited from earlier work.
In data set [2] the target is T1, Albumax medium (lipid rich bovine serum albumin) (Bos taurus, UniProt P02769).
T1 construct: purchased Gibco, Thermo Fisher Scientific
Description: Binding in Albumax medium via ultracentrifugation. It is filed as in vitro ADME. Conditions: pH 7.4. How it is done:
An ultracentrifugation method adapted from a previous publication was initially used to assess plasma protein binding and binding in the other media. […] Additional ultracentrifuge tubes containing spiked matrix were maintained at 37 °C, 5% or 10% CO2 or normal atmosphere conditions, with aliquots being taken within 0.5 h of the start and at the end of ultracentrifugation to serve as controls for the assessment of stability and to obtain a measure of the total concentration (Ctotal). Following ultracentrifugation, the pH was checked and an aliquot of protein-free supernate was taken from each ultracentrifuge tube for determination of the unbound concentration (Cunbound).
Total matrix and protein free samples were analysed using a matrix matching approach whereby each sample was mixed in a 1:1 ratio with the opposite blank medium (i.e. blank total matrix or blank protein free buffer). For example, plasma samples were mixed with blank pH 7.4 buffer whereas plasma supernatant samples were mixed with blank plasma. […] The standard deviation for fu was calculated using the propagation of errors approach as described previously. The potential for compound degradation was assessed by comparing the average value for Ctotal at the start and end of the experiment.

Amino acid sequences for entries named in this document (tags omitted). Residues count along the entry.
UniProt P02769, 25-607: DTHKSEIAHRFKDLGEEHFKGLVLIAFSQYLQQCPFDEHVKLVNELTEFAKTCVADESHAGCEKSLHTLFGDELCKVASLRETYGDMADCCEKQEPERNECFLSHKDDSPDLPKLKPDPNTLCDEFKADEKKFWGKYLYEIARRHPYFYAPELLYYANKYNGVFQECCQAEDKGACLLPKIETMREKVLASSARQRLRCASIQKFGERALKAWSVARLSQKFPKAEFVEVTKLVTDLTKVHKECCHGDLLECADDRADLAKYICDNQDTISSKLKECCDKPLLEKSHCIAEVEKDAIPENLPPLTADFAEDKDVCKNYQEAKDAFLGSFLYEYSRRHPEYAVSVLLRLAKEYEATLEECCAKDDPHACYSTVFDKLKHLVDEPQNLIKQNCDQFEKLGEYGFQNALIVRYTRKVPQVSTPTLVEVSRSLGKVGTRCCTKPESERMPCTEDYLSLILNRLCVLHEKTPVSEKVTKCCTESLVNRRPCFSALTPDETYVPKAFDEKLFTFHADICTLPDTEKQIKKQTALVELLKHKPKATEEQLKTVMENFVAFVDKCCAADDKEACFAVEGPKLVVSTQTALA

Data set [3] in a line: Binding in DMEM with 10% FCS via ultracentrifugation. It is filed as in vitro ADME, calf. Conditions: bovine, pH 7.4. How it is done:
Dulbecco’s Modified Eagle’s Medium (DMEM) containing GlutaMAX-I was purchased from Invitrogen (Thermo Fisher Scientific) and stored at 4 °C. Medium was prepared by adding heat inactivated foetal calf serum (FCS, final 10% v/v), penicillin (final 100 U/mL), streptomycin (final 100 µg/mL) D-glucose (final 4.0 mg/mL) and sodium pyruvate (final 0.1 mg/mL).
(§1) An ultracentrifugation method adapted from a previous publication was initially used to assess plasma protein binding and binding in the other media. […] Additional ultracentrifuge tubes containing spiked matrix were maintained at 37 °C, 5% or 10% CO2 or normal atmosphere conditions, with aliquots being taken within 0.5 h of the start and at the end of ultracentrifugation to serve as controls for the assessment of stability and to obtain a measure of the total concentration (Ctotal). […]
(§2) Total matrix and protein free samples were analysed using a matrix matching approach whereby each sample was mixed in a 1:1 ratio with the opposite blank medium (i.e. blank total matrix or blank protein free buffer). […] The standard deviation for fu was calculated using the propagation of errors approach as described previously. The potential for compound degradation was assessed by comparing the average value for Ctotal at the start and end of the experiment.

A short description of data set [4]: Plasma protein binding via ultracentrifugation (UC). It is filed as in vitro ADME. The conditions noted are these: human, neat pooled plasma, pH 7.4. How it is done:
Pooled human plasma (n = 3–4 donors) was obtained by centrifugation of blood (collected by the Australian Red Cross Blood Service, Melbourne, Australia or the Volunteer Blood Donor Registry, Clinical Translation Centre, Walter & Eliza Hall Institute of Medical Research, Parkville, Australia), or sourcing pooled plasma directly from commercial sources (Innovative Research Inc, MI) and stored frozen at − 80 °C.
as §1, §2

Data on one compound can be found in article PMC6941357, “An in vitro toolbox to accelerate anti-malarial drug discovery and development” (Malaria Journal, 2020).

One may read the fraction unbound as the share of the substance not bound to proteins or other matrix. The low end stands for extensive binding, the high end for weak binding. Turning to `Cc1cc(NS(=O)(=O)c2ccc(N)cc2)no1` [Sulfamethoxazole], the Literature fu in data set [1] was 0.27. In data set [2], this compound showed a fraction unbound at […], 500 ng/mL of 0.67 ± 0.12. In data set [3], this compound displayed a fraction unbound at […], 1000 ng/mL of 0.87 ± 0.058. The free fraction (fraction unbound) at […] in data set [4] amounted to 0.32 ± 0.024.
